In patent US9885050B2, “Molecular affinity clamp technology and uses thereof” (The University of Chicago, priority 2007, dated 2018):
Some results were stated once for a whole list of compounds, not compound by compound.

Sequences of proteins named here, by UniProt entry; tags and fusion partners are left off. A change or cut given only in a name is not applied to a line headed by its entry.
UniProt Q9UQB3: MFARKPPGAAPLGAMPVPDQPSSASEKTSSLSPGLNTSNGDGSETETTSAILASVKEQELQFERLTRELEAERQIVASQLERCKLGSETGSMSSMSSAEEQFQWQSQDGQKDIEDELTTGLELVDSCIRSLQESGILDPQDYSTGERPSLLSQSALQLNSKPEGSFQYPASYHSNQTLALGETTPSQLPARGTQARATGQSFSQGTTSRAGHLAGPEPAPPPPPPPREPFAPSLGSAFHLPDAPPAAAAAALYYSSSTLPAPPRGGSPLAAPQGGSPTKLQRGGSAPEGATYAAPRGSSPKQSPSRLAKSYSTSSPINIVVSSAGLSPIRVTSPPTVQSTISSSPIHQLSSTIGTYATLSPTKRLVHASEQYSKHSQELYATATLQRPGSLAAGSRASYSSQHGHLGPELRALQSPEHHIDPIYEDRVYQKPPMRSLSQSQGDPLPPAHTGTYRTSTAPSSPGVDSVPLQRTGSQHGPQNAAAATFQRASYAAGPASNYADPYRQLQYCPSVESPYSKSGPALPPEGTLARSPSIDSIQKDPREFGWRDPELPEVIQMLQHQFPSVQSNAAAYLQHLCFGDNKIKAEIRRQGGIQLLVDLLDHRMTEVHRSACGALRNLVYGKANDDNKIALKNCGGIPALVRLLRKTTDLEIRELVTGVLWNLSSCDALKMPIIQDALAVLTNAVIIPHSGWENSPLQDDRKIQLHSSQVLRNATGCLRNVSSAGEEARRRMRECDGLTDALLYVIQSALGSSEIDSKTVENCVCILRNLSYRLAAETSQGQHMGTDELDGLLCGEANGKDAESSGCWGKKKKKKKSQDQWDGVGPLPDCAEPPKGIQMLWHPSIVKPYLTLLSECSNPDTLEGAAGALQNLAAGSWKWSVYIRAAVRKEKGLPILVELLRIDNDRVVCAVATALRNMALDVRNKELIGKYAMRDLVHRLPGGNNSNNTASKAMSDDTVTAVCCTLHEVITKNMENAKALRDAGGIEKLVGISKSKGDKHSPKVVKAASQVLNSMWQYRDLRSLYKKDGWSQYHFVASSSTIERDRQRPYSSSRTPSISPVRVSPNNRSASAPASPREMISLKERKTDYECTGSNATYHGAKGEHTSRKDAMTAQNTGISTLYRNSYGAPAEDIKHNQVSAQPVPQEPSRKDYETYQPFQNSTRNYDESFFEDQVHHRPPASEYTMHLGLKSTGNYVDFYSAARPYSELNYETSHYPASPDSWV

Molecular target: T1, δ-catenin peptide (PASPDSWV-COOH) (Homo sapiens, UniProt Q9UQB3)
T1 construct: yeast SUMO (N); made in house
Assay: Surface plasmon resonance (SPR, BIAcore) analysis of motif binding, δ-catenin peptide
Source text: Using semi-automated methods, the phage display library was sorted using an eight-residue motif (SEQ ID NO: 148) corresponding to the ARVCF C-terminus. […] The maximal motif/affinity concentrations are indicated. In B, C and F, the on and off rates are also shown on the left and right sides, respectively. […] After four rounds of sorting, two clones with high affinity were identified to the ARVCF peptide motif. ePDZ-a (SEQ ID NO: 149) and ePDZ-b (SEQ ID NO: 150) are thus (referred to as “enhanced PDZ-a” and “enhanced PDZ-b” or simply “ePDZ-a” and “ePDZ-b” respectively) potential affinity clamp candidates.
The binding specificity of the ePDZ clones was investigated. In addition to the ARVCF motif, wild-type erbin PDZ also binds to the C-terminus of δ-catenin with a low μM Kd. The two sequences differ only at positions outside the core recognition motif, DSWV (SEQ ID NO: 69) —COOH (Table 2). The affinity enhancement of ePDZ-a was similar for both targets. Remarkably, the ePDZ-b clone had very weak binding to δ-catenin, similar to the wild-type PDZ domain, showing that ePDZ-b discriminates between the two targets by ˜200 fold. […] The improved specificity is consistent with the molecular affinity clamp design where the enhancer domain binds to the motif surface presented on the PDZ domain and thus can “read” the motif sequence (FIG. C2).

Substance	discrimination between ARVCF peptide and δ-catenin peptide
ePDZ-b1: second-generation affinity-matured variant of ePDZ-b, SEQ ID NO: 151 (HYNYHYYS)	more than 2,000 fold
ePDZ-b2: second-generation affinity-matured variant of ePDZ-b, SEQ ID NO: 143 (SYYGVS)	more than 2,000 fold
